Laboratory results from publication PMC12040169 (PLOS Biology, 2025).
Some of the results follow.

The molecules below were run on T1, CTL2-GFP (C. trachomatis L2/434/Bu, GFP-expressing). Settings: bulk GFP, single well; 28.5 h, 10 µM; inhibitor.
T1 construct: L2/434/Bu, GFP-expressing
Set-up: species or system HeLa; Intracellular C. trachomatis growth in HeLa cells, bulk GFP fluorescence relative to DMSO
In the case of `FC(F)(F)C1CN(C2CCCCC2)C(=S)S1` (stereo not shown) [CBK009719], the “% of control remaining” value is reported as 136.684%.
With `O=C(NC[C@H]1C[C@@H]2CC[N@]1C[C@@H]2CN1CCN(c2ccccn2)CC1)c1ccco1` [CBK288867] the “% of control remaining” value was 114.813%.
`Cc1cccc(C(N)=O)c1O` [CBK012294] was tested, and the “% of control remaining” value was 102.577%.
`CC(C)C(=O)N1CCC(c2[nH]ncc2-c2ccncc2)CC1` [CBK284237] was tested, and the “% of control remaining” value was 133.397%.
For `C#CCNC(=O)N1CCC(c2c[nH]c3ccccc23)CC1` [CBK305034], the “% of control remaining” value was 133.6%.
For `COc1c(O)ccc(/C=N/NC(=O)c2cccnc2)c1[N+](=O)[O-]` [CBK262197], the “% of control remaining” value was 85.3552%.
For `Cc1cc(CN(C)C(=O)Cc2csc(NC(=O)c3ccoc3C)n2)no1` [CBK305779], the “% of control remaining” value was 95.7023%.
In the case of `CCCN(C(=O)CCc1ccc(C)cc1C)C1CCNCC1` [CBK304302C], the “% of control remaining” value is reported as 109.257%.
`CC(C)NC(=O)CSc1nc2ccccc2[nH]1` [CBK072235] was tested, and the “% of control remaining” value was 105.64%.
`S=C(NCCc1c[nH]c2ccccc12)NCc1ccco1` [CBK267157] was tested, and the “% of control remaining” value was 196.31%.
In the case of `O=C(NCCC1SC(NC2CCCCCC2)=NC1=O)Nc1ccc(F)cc1F` (stereo not shown) [CBK067469], the “% of control remaining” value is reported as 120.518%.
`O=C(Cn1cnc2ccccc21)N1CCC(c2ccccc2)C1` (stereo not shown) [CBK281845] was tested, and the “% of control remaining” value was 129.589%.
`Cc1cccc(Nc2nc(N)nc(CC(=O)CSc3ccc(Cl)cc3)n2)c1` [CBK265204] was tested, and the “% of control remaining” value was 88.547%.
For `COc1c(Cl)ccc(Cl)c1C(=O)OCC(=O)O` [CBK264596], the “% of control remaining” value was 91.0087%.
`CCOCCCNC(=O)c1cnn2c(C)c(Cc3cccnc3)c(C)nc12` [CBK162152] was tested, and the “% of control remaining” value was 146.112%.
In the case of `Cc1nn(C)c(N2CCNCC2)c1NC(=O)/C=C/c1cccnc1` [CBK050354T], the “% of control remaining” value is reported as 100%.
`CCCNc1nc(-c2cc(OC)c(OC)c(OC)c2)cn2ccnc12` [CBK066363] was tested, and the “% of control remaining” value was 145.565%.
`FC(F)(F)c1ccnc(SCCc2ccccn2)c1` [CBK103709] was tested, and the “% of control remaining” value was 112.963%.
For `O=C(Nc1cccnc1)c1c(O)n(Cc2ccccc2)c2ccccc2c1=O` [CBK291206], the “% of control remaining” value was 90.4654%.
For `O=C(CN1CCCC2(CCN(C(=O)c3ccoc3)C2)C1)Nc1ncccn1` (stereo not shown) [CBK137140], the “% of control remaining” value was 116.473%.
In the case of `Cc1nn(C)c(Cl)c1CN(CCC#N)Cc1ccco1` [CBK304825], the “% of control remaining” value is reported as 127.043%.
With `CCn1c(SCC(=O)Nc2ccc([N+](=O)[O-])cc2)nnc1C(NC(=O)c1ccccc1)C(C)C` (stereo not shown) [CBK107508] the “% of control remaining” value was 110.837%.
For `COc1ccc(NC(=O)C2CC3CCC2C3)cc1S(=O)(=O)Nc1ccc(Cl)cc1` (stereo not shown) [CBK297945], the “% of control remaining” value was 90.1225%.
With `CC(=O)Nc1cccc(CN(CCCCO)C2CC2)c1` [CBK304806] the “% of control remaining” value was 106.171%.
`CCCc1n[nH]c(=S)n1CC(=O)NCc1ccc(OCCC(C)C)c(OC)c1` [CBK297743] was tested, and the “% of control remaining” value was 162.42%.
With `COc1ccc([C@@]23CC[C@@H](NC(=O)Nc4ccc5ccccc5c4)C[C@@H]2N(C)CC3)cc1OC` [CBK034181T] the “% of control remaining” value was 104.806%.
In the case of `N#Cc1ccccc1Cn1ccc2c(N3CCNCC3)cccc21` [CBK200015C], the “% of control remaining” value is reported as 127.483%.
In the case of `CSc1nc(N)c2nccnc2n1` [CBK025779], the “% of control remaining” value is reported as 100.166%.
With `COc1ccc(C)cc1NC(=S)NCc1cnn(C)c1` [CBK267025] the “% of control remaining” value was 129.6%.
In the case of `CC1CN(CCNCc2cn(C)nc2-c2cccnc2)CC(C)O1` (stereo not shown) [CBK305151], the “% of control remaining” value is reported as 123.707%.
For `CCCc1[nH]nc(O)c1CCc1cccc(OC)c1OC` [CBK075078], the “% of control remaining” value was 134.603%.
`NC(=O)N/N=C/c1cc(Br)cs1` [CBK026434] was tested, and the “% of control remaining” value was 99.0543%.
With `O=C(CCCc1nc(-c2ccccc2Cl)no1)Nc1cccnc1` [CBK269122] the “% of control remaining” value was 172.093%.
In the case of `FC(F)(F)c1ccnc(SCCc2ccncc2)n1` [CBK105302], the “% of control remaining” value is reported as 167.6%.
In the case of `CCNC(=S)N1CC[C@@H]2N(C)CC[C@]2(c2ccc(OC)c(OC)c2)CC1` [CBK059113T], the “% of control remaining” value is reported as 130.746%.
In the case of `O=C(COC(=O)c1cc(-c2ccc(Cl)cc2)nc2ccccc12)c1cccc([N+](=O)[O-])c1` [CBK293923], the “% of control remaining” value is reported as 168.819%.
`O=C(COc1ccc(F)cc1)N1CCC2(CCNC2)C1` (stereo not shown) [CBK156691C] was tested, and the “% of control remaining” value was 146.966%.
With `Cc1ccc(S(=O)(=O)Nc2ccc(N3CCCNCC3)cc2N(C)S(C)(=O)=O)cc1` [CBK000017C] the “% of control remaining” value was 103.46%.
In the case of `O=C(COC(=O)c1ccc(Cl)c(Cl)c1)c1ccc(Oc2ccc([N+](=O)[O-])cc2)cc1` [CBK264821], the “% of control remaining” value is reported as 103.323%.
With `Cc1nc2n(CCN3CCCCC3)c3ccccc3n2n1` [CBK278258C] the “% of control remaining” value was 95.5404%.
